Each structure is given as a SMILES string.

The data set can be described thus: acute lethality (LD50). The settings on record: in vivo; DS male mouse, 20-24 g. From the text: *^3 test animal: DS male mouse, 20-24 g of body weight

For orientation: LD50 means the dose expected to kill half of the subjects tested. Higher therefore signals lower toxicity. `CN1C(=O)CN=C(c2ccccc2)c2cc(Cl)ccc21` [diazepam, reference compound] registered a median lethal dose (LD50) above 1000 mg/kg.

These data come from patent US4297280A, “4,1-Benzoxazepines” (Shionogi & Co., Ltd., priority 1978, dated 1981).
